Assay results as given in PubChem BioAssay AID540256 (National Center for Advancing Translational Sciences (NCATS), 2011).
Several values for one entry are separate records, joined by “and”; a condition that tells them apart may be missing. Equal entries are not always repeated. Hit rate of the full screen: of about 300,000 compounds, about 3,700 (1.2%) were called active. Inconclusive results, whose numbers are uncertain, are shown with a selection of clear calls. The call rests on the fitted dose curve; tested in HEK293 cells. Where the call is inconclusive, the potency comes from a doubtful curve fit.

Experiment: qHTS for Inhibitors of binding or entry into cells for Lassa Virus; further: nearly all actives have a fitted effect of over 50% in size
Details: Lassa virus pseudotype entry inhibition, cell reporter; series mostly up to 37.9 µM
Potency means the concentration at half of the fitted maximal effect.

Compound | Potency
CN(C)CCC(O)c1ccccc1 (stereo unspecified) | inactive
COc1ccc(/C=C/c2nc(C#N)c(NC3CCCCC3)o2)cc1OC | inactive
CCN(CC)c1ccc(S(=O)(=O)N2CCOCC2)cc1NC(=O)COC(=O)c1cccnc1SC | inconclusive: 10 µM [inhibitor, partial curve, poor fit]
CCN(CC)c1ccc(C(=O)NNC(=O)c2cccn2C)cc1 | inactive
COc1cc(C(C[N+](=O)[O-])c2c(N)n(C)c(=O)n(C)c2=O)ccc1O (stereo unspecified) | inconclusive: 12.6 µM [inhibitor, single point]
Cc1ccnc(NC(=O)c2cccs2)c1 | inconclusive: 3.55 µM [activator, partial curve, poor fit]
COc1ccc(C(=O)Nn2c(SCC(=O)NC3CCCC3)nc3ccccc3c2=O)cc1 | inconclusive: 29.1 µM [inhibitor, single point]
S=c1[nH]nc(C2CCCCC2)n1/N=C/c1ccc(Br)s1 | inconclusive: 5.8 µM [inhibitor, partial curve]
COc1ccc(/C=N\NC(=O)COc2ccccc2)c(C(=O)O)c1OC | inactive
O=C(NC1CCCCC1)c1cc(-c2cccs2)on1 | inconclusive: 10 µM [inhibitor, partial curve]
O=C(/C=C/c1cccc(F)c1)Nc1cc(S(=O)(=O)N2CCOCC2)ccc1N1CCCC1 | inconclusive: 1.26 µM [activator, partial curve, poor fit]
O=[N+]([O-])c1ccc(N/N=C/c2c[nH]c3ccccc23)cc1 | inactive
COCCn1c(SCC(=O)Nc2sccc2C(N)=O)nc2cc(Cl)ccc2c1=O | inconclusive: 12.6 µM [inhibitor, partial curve, poor fit]
CCCCCOc1ccc(C)cc1CN(CCCl)CCCl | inconclusive: 35.5 µM [inhibitor, single point]
COCCN(C(=O)CSc1nn(-c2ccc(F)cc2)c(=S)s1)c1c(N)n(CC(C)C)c(=O)[nH]c1=O | inconclusive: 2.82 µM [inhibitor, full curve]
COc1ccc(C(=O)n2nc(-c3ccco3)nc2N)cc1 | inactive
C=CCn1cc(C(=O)NCc2ccc(Cl)cc2)c(=O)c2cc(S(=O)(=O)N(CC)CC)ccc21 | active: 0.398 µM
CC1(C)C(=O)C=C[C@]2(C)[C@H]3CC[C@@]4(C)[C@H](c5ccoc5)OC(=O)[C@H]5O[C@]54[C@]3(C)[C@H](O)C[C@@H]12 | inconclusive: 20.6 µM [inhibitor, single point]
CC1CCCN(CCOc2ccc3ccccc3c2Br)C1 (stereo unspecified) | inconclusive: 12.6 µM [inhibitor, partial curve, poor fit]
Cc1ccc(N=Cc2sc(O)c3ccccc23)cc1 | inconclusive: 2.82 µM [activator, single point]
COc1cc2c(C(=O)N3CCN(c4ccc(C)cc4)C(C)C3)cn(CC(C)C)c(=O)c2cc1OC (stereo unspecified) | inconclusive: 35.5 µM [inhibitor, single point]
O=C(N/N=C/c1ccc(OC(=O)c2ccco2)cc1)c1ccccn1 | inconclusive: 3.16 µM [activator, partial curve, poor fit]

Compound | Potency
Cc1cccc(C(=O)NCC(=O)OCC(=O)c2cc(C)n(CC3CCCO3)c2C)c1 (stereo unspecified) | inconclusive: 1 µM [inhibitor, single point]
CCOC(=O)c1ccc(NC(=O)c2cc3c(=O)n(C)c4ccccc4c3n2C)cc1 | inactive
O=C(c1cc(C(=O)NCCc2ccccc2)c(=O)n(CCc2ccccc2)c1)c1cc(Cl)ccc1O | inconclusive: 35.5 µM [inhibitor, single point]
CCOc1ccc(CN(CCc2ccc3c(c2)OCO3)Cc2cc(OC)ccc2O)cc1 | inactive
COc1ccc(C(C#N)=C2C=CC(=NO)C=C2)cc1 | inconclusive: 25.1 µM [inhibitor, partial curve, poor fit]
COc1ccc(C(=O)/C=C/C(=O)N(CC(=O)NC2CCCCC2)Cc2ccccc2OC)c(O)c1 | inconclusive: 8.91 µM [inhibitor, partial curve, poor fit]
CCSCCOC(=O)C1=C(C)NC(=O)NC1c1cc(OC)ccc1OC (stereo unspecified) | inactive
Cc1cc(C)cc(Oc2nc(-c3ccccc3)cc(C)c2S(C)(=O)=O)c1 | inconclusive: 35.5 µM [inhibitor, single point]
COc1ccc(CCNC(=O)c2cc(-c3ccc(Cl)cc3)on2)cc1OC | inconclusive: 20 µM [activator, single point]
O=C(CSc1nnc(CNC(=O)c2ccco2)o1)c1ccccc1 | inconclusive: 1.26 µM [activator, single point]
Cc1ccc(Br)c(NS(=O)(=O)c2cccc(C(=O)N3CCNC(=O)C3)c2)c1 | inactive
Cc1cc(C(F)(F)F)nn1Cc1n[nH]c(=S)n1-c1ccc(F)cc1 | inconclusive: 6.31 µM [activator, single point]
O=[N+]([O-])c1ccc(S(=O)(=O)Nc2cccc(-c3ccc(N4CCOCC4)nn3)c2)cc1 | inconclusive: 2 µM [inhibitor, full curve, poor fit]
CNC(=O)CSc1nc(-c2ccccc2)c(-c2ccccc2)o1 | inactive
CNC(=O)CSc1nc2sccc2c(=O)n1-c1ccccc1 | inactive
Cc1cccc(C)c1OCC(=O)N(Cc1ccc(Cl)cc1)CC1CCCO1 (stereo unspecified) | inactive
O=C(Cc1nc(-c2cnccn2)no1)NNC(=O)Nc1ccccc1 | inconclusive: 1.26 µM [inhibitor, single point]
O=C1NC(c2ccccc2)=C(c2ccc3ccccc3n2)C(c2ccc(F)cc2)N1 (stereo unspecified) | inconclusive: 16.4 µM [inhibitor, partial curve]
COc1ccc(/C=N/NC(=O)c2ccoc2C)cc1OC | inconclusive: 0.461 µM [activator, partial curve]
O=C(OC1CCCCC1=O)c1cc(S(=O)(=O)N2CCOCC2)ccc1F (stereo unspecified) | inactive
C=C(C)COc1ccc(-c2nc(N)ncc2Oc2ccccc2OCC)c(O)c1 | inconclusive: 7.08 µM [inhibitor, partial curve, poor fit]
S=C(Nc1ccc(Cl)cc1)c1nc2ccccc2[nH]1 | inconclusive: 18.4 µM [inhibitor, single point]

Compound | Potency
Cn1cccc1C(=O)NC(=O)CSc1nnc(C2CC2)n1-c1ccccc1 | inconclusive: 29.1 µM [inhibitor, single point]
COc1cc2c(cc1OC)C(COc1ccc3c(C)cc(=O)oc3c1)N(C(=O)c1ccc(C)c(C)c1)CC2 (stereo unspecified) | inconclusive: 3.16 µM [activator, partial curve, poor fit]
Cc1nc(C)c(C(=O)N(c2ccccc2F)C(C(=O)NCC2CCCO2)c2ccccc2)s1 (stereo unspecified) | inconclusive: 0.224 µM [inhibitor, full curve, poor fit]
Cc1ccc(C2CC(=O)Nc3c2ccc2ccccc32)cc1[N+](=O)[O-] (stereo unspecified) | inconclusive: 18.4 µM [inhibitor, single point]
Cc1ccc(C)c(N2CCN(C(=O)c3ccc4c(c3)c(C)c(C)n4C)CC2)c1 | inconclusive: 8.91 µM [inhibitor, partial curve, poor fit] and inconclusive: 25.1 µM [inhibitor, single point]
CCOC(=O)c1csc(NC(=O)COc2ccc(Cl)cc2Cl)n1 | inconclusive: 0.794 µM [inhibitor, single point]
Cc1ccc(S(=O)(=O)n2nc(-c3cccnc3)nc2N)cc1 | inconclusive: 23.1 µM [activator, single point]
COc1ccc2sc(NC(=O)c3ccco3)nc2c1 | inconclusive: 6.51 µM [inhibitor, partial curve, poor fit]
O=C1N(Cc2cccc(Cl)c2)C[C@@H]2C[C@@H](c3cccn3-c3nccs3)N3CCC[C@@]123 | inconclusive: 10 µM [inhibitor, partial curve, poor fit]
CCCCc1cc2c(cn1)C(=O)C(C)(OC(C)=O)C(=O)C2 (stereo unspecified) | inconclusive: 0.0094 µM [inhibitor, full curve, poor fit]
CCOc1ccccc1C1CC(=O)NC(C)=C1C(=O)OCc1ccc(C)cc1 (stereo unspecified) | inactive
CCCCCC(=O)NC(=S)Nc1ccc(N2CCCCC2)c(Cl)c1 | inactive
CC1CN(c2ccc(C(F)(F)F)cc2[N+](=O)[O-])CCN1S(C)(=O)=O (stereo unspecified) | inactive
Nc1nnc(Cc2ccc(Cl)cc2Cl)s1 | inactive
Cc1ccccc1S(=O)(=O)Cc1ccc(C(=O)NCc2ccccc2)o1 | inconclusive: 17.8 µM [inhibitor, partial curve, poor fit]
CCCSC1=C(C#N)C(c2ccccc2C)CC(=O)N1 (stereo unspecified) | inactive
O=C(Nc1ccc(Cl)c(S(=O)(=O)N2CCOCC2)c1)c1ccc(OCC2CCCO2)cc1 (stereo unspecified) | inconclusive: 17.8 µM [inhibitor, partial curve, poor fit]
NNC(=O)/C(=C\c1cccs1)NC(=O)c1ccccc1 | inconclusive: 23.1 µM [inhibitor, single point]
CC(C)(C)c1ccc(OCC(O)CSc2ncn[nH]2)cc1 (stereo unspecified) | inconclusive: 0.13 µM [inhibitor, full curve, poor fit]
O=C(CN(c1cccc(C(F)(F)F)c1)S(=O)(=O)c1ccccc1)N1CCOCC1 | inactive
Cn1cc(Br)c(C(=O)N2CCN(c3cccc(Cl)c3)CC2)n1 | inconclusive: 23.1 µM [inhibitor, single point]
O=C(CN1CCN(S(=O)(=O)c2ccc(Br)cc2)CC1)Nc1ccc(F)cc1F | inconclusive: 1.12 µM [inhibitor, full curve, poor fit]

Some of these compounds in order of formula weight, low to high:
Compound | Potency
C=C(C)COc1ccc(-c2nc(N)ncc2Oc2ccccc2OCC)c(O)c1 | inconclusive: 7.08 µM [inhibitor, partial curve, poor fit]
O=C1NC(c2ccccc2)=C(c2ccc3ccccc3n2)C(c2ccc(F)cc2)N1 (stereo unspecified) | inconclusive: 16.4 µM [inhibitor, partial curve]
CCOc1ccc(CN(CCc2ccc3c(c2)OCO3)Cc2cc(OC)ccc2O)cc1 | inactive
